From the supplement of paper PMC12462457
Structures can show the parent of a compound that is named as a salt. ± gives the standard deviation of the averaged measurements. The list shows a part of the results. Repeats in this data set agree poorly, so a single value says little.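 Imaging of DAPI-stained nuclei was used to count cells; those without phalloidin-stained cytoplasm were treated as dead and excluded. Every well's count was divided by the median of same-plate vehicle wells, then averaged across two replicate plates.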

Tested on: OVCAR8
Assay: cell count relative to DMSO vehicle (fold change); higher = more surviving senescent cells (less killing)
Settings: senescence inducer: cisplatin 10 µM 48 h, then 6 d recovery (CP senescent), exposure time 24 h

COc1cc(O)c(C(=O)/C=C/c2ccccc2)c(OC)c1 [Flavokawain B]
cell count (compound dose 1 µM): 0.871 ± 0.095
cell count (compound dose 5 µM): 0.873 ± 0.04

CCCc1nn(C)c2c(=O)[nH]c(-c3cc(S(=O)(=O)N4CCN(C)CC4)ccc3OCC)nc12
cell count (compound dose 1 µM): 1.17 ± 0.063
cell count (compound dose 5 µM): 0.867 ± 0.49

COc1cc(CNC(=O)CCCCCCC(C)C)ccc1O [Dihydrocapsaicin]
cell count (compound dose 1 µM): 1.09 ± 0.08
cell count (compound dose 5 µM): 0.915 ± 0.056

N#CC[C@H](C1CCCC1)n1cc(-c2ncnc3[nH]ccc23)cn1 [Ruxolitinib]
cell count (compound dose 1 µM): 1.13 ± 0.066
cell count (compound dose 5 µM): 0.728 ± 0.25

Cn1cnc2c(F)c(Nc3ccc(Br)cc3Cl)c(C(=O)NOCCO)cc21 [Selumetinib (AZD6244)]
cell count (compound dose 1 µM): 1.3 ± 0.14
cell count (compound dose 5 µM): 1.22 ± 0.098

CC1(C)O[C@@H]2C[C@H]3[C@@H]4C[C@H](F)C5=CC(=O)C=C[C@]5(C)[C@H]4[C@@H](O)C[C@]3(C)[C@]2(C(=O)CO)O1 [Flunisolide]
cell count (compound dose 1 µM): 1.16 ± 0.042
cell count (compound dose 5 µM): 1.137 ± 0.0092

CCOC(=O)c1c2c3c(cccc3[nH]c1=O)C(=O)c1ccccc1-2
cell count (compound dose 1 µM): 1.04 ± 0.24
cell count (compound dose 5 µM): 1.08 ± 0.071

COc1ccc(-c2cc(=O)c3c(OC)cc(OC)cc3o2)cc1
cell count (compound dose 1 µM): 0.742 ± 0.028
cell count (compound dose 5 µM): 1.06 ± 0.1

CC(ONC(=O)c1cc(C(F)(F)F)cc(C(F)(F)F)c1)C(=O)Nc1ccc(Cl)cc1 (stereo not drawn)
cell count (compound dose 1 µM): 0.814 ± 0.15
cell count (compound dose 5 µM): 0.985 ± 0.073

Cn1nnc2c(C(N)=O)ncn2c1=O
cell count (compound dose 1 µM): 1.062 ± 0.0021
cell count (compound dose 5 µM): 1.03 ± 0.18

COc1ccc(-c2cc3nccn3c(Nc3ncccc3C(N)=O)n2)cc1OC [BAY 61-3606 (dihydrochloride)]
cell count (compound dose 1 µM): 1.38 ± 0.072
cell count (compound dose 5 µM): 1.18 ± 0.082

C=C1C(=O)O[C@H]2[C@H]1CC/C(C)=C/CC[C@@]1(C)O[C@@H]21 [Parthenolide]
cell count (compound dose 1 µM): 0.779 ± 0.046
cell count (compound dose 5 µM): 0.481 ± 0.13

COCCOc1cnc(Sc2cc(C)c(-c3csc(NC(=O)c4ccncc4)n3)c(C)c2)cn1 [T-1101 (tosylate)]
cell count (compound dose 1 µM): 1.02 ± 0.19
cell count (compound dose 5 µM): 1.09 ± 0.042

Cc1ccc(C(=O)Cn2c3c(sc2=N)CCCC3)cc1 [Pifithrin-α (hydrobromide)]
cell count (compound dose 1 µM): 1.01 ± 0.14
cell count (compound dose 5 µM): 0.801 ± 0.2

CNC(=O)[C@H]1O[C@@H](n2cnc3c(NCc4ccc(I)cc4)ncnc32)[C@H](O)[C@@H]1O [Piclidenoson]
cell count (compound dose 1 µM): 0.779 ± 0.013
cell count (compound dose 5 µM): 0.801 ± 0.17

O=C(CCl)NCc1cccc2c1C(=O)N(C1CCC(=O)NC1=O)C2=O (stereo not drawn)
cell count (compound dose 1 µM): 1.09 ± 0.1
cell count (compound dose 5 µM): 1.13 ± 0.29

O=C1Nc2ccccc2C1=O [Isatin]
cell count (compound dose 1 µM): 1.08 ± 0.066
cell count (compound dose 5 µM): 1.26 ± 0.15

COc1ccc(-c2cc(=O)c3c(OC)c(OC)c(OC)c(OC)c3o2)cc1
cell count (compound dose 1 µM): 0.87 ± 0.019
cell count (compound dose 5 µM): 0.576 ± 0.33

CO[C@H]1C[C@@H]2CC[C@@H](C)[C@@](O)(O2)C(=O)C(=O)N2CCCC[C@H]2C(=O)O[C@H]([C@H](C)C[C@@H]2CC[C@@H](OC(=O)C(C)(CO)CO)[C@H](OC)C2)CC(=O)[C@H](C)/C=C(\C)[C@@H](O)[C@@H](OC)C(=O)[C@H](C)C[C@H](C)/C=C/C=C/C=C/1C [Temsirolimus]
cell count (compound dose 1 µM): 0.927 ± 0.064
cell count (compound dose 5 µM): 0.763 ± 0.018
